Experimental findings from publication PMC6901988 are described below.

By UniProt entry, the sequences of proteins in these tests, tags left out.
UniProt P19525: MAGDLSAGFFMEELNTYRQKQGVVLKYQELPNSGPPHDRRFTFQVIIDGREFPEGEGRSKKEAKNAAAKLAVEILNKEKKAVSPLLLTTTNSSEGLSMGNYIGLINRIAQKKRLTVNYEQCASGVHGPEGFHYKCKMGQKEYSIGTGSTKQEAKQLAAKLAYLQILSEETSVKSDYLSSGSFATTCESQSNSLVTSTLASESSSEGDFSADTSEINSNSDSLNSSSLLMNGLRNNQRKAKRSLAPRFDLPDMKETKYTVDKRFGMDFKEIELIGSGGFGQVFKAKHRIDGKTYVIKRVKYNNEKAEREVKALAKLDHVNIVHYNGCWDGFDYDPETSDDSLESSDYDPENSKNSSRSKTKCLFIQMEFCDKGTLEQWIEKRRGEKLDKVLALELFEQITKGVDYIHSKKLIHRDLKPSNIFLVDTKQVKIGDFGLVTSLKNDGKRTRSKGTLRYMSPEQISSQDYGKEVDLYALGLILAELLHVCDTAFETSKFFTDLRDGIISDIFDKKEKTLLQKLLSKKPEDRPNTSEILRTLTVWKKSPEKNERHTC
UniProt Q9ULZ3: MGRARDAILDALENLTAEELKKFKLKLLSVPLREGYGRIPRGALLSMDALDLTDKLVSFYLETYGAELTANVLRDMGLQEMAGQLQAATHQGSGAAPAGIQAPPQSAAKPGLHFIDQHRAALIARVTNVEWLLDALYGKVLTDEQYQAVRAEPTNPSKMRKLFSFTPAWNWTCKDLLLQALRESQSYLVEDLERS

Results are given in words; binding and its absence hold for the method and conditions named. Binding seen in cells or lysates may run through a third protein. Some results given as binding are weak or reduced against the parent protein; the word gives no strength.

The test concerns the target Flag-tagged PKR (interferon-inducible double-stranded RNA-dependent protein kinase) (human) (UniProt P19525). Put plainly: co-IP.

“YFP-ASC (apoptosis-associated speck-like protein containing a caspase recruitment domain), stably expressed in HEK293 cells (from UniProt Q9ULZ3 1-195)”: the binding entry is “binds”.
